Results deposited as PubChem BioAssay AID504793 (Drosophila RNAi Screening Center, 2011).
In all, the deposit lists about 23,000 reagents; below is a random part of those with a known target gene and a result. In the full data, 62 (0.27%) are marked active. 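Calls come from follow-up tests whose scores are not deposited, so confirmed genes may have low counts here; counts are not normalised per plate.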 Raw values vary from plate to plate and are shown uncorrected. A number with no mark means an inactive call. The numbers tell different reagents against one gene apart. Names joined by + are all predicted targets of the reagent.

- Test: 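Knock-downs allowing continued mitosis even though DNA is damaged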 (primary screen)
- Cells: Drosophila S2R+ cells
- Reagents: long dsRNA against Drosophila genes, about 0.25 µg dsRNA per well
- Time to read-out: 4 days of dsRNA, then 4 hours of drug before read-out
- Challenge: doxorubicin 0.5 µM for 4 hours to cause double-strand breaks, in cells also given a low, harmless dose of dsRNA against nbs to sensitise the assay
- Detection: 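Per-well count of mitotic cells stained for phospho-histone H3 after doxorubicin exposure, used as mitotic index; counts are raw and not normalised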
- Scale: mitotic cells: higher = more cells in mitosis, weaker G2 arrest
- Active means: 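Genes are called active only when high mitotic counts were reproduced with independent dsRNAs and mitosis was checked for delay without damage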
- Meaning of the calls: active = confirmed in follow-up tests; inactive = not confirmed

Target gene	dsRNA no.	mitotic cells, replicate 1	mitotic cells, replicate 2
Gr92a	1	12	
Dgat2	1	7	
CG8838	1	4	
CG8838	2	4	
CG31808	1	10	
CG31808	2	3	
Uch	1	5	
CG16837	1	5	
CG16837	2	131	
alien + CG17906	1	2	
Fbl6	1	10	
Fbl6	2	8	
SmydA-1	1	9	
CG15553	1	10	
Hand	1	12	
CG32243	1	16	
CG32267	1	8	
CG32267	2	8	
cola + swif	1	8	
cola + swif	2	10	
CG9018	1	5	
CG17580	1	4	
CG17580	2	5	
CG4630	1	11	
CG4630	2	5	
Tudor-SN	1	11	
CG3038	1	13	
CG2113	1	7	
CG2113	2	3	
Ilp3	1	3	
Cpr31A	1	5	
Cpr31A	2	6	
MetRS	1	9	
CG7298	1	7	
CG7131	1	4	
CG7131	2	8	
cv	1	11	
alphaTry	1	4	
Lcp2	1	8	
CG14591	1	4	
Wbp2	1	6	
elav	1	6	
CG17486	1	4	
Est-Q	1	5	
CG42245 + MEP-1	1	8	
CG42245 + MEP-1	2	9	
CG42245 + MEP-1	3	41	
CG42245 + MEP-1	4	9	
Cap-D3	1	4	
Cap-D3	2	4	
Cyp4p1	1	3	
Cyp4p1	2	1	
PH4alphaMP	1	6	
CG13323	1	9	
Dhfr	1	3	
Dhfr	2	5	
Rcd7	1	6	
Drip	1	4	
Coq7	1	6	
S6KL	1	19	
S6KL	2	13	
Lsm10	1	4	
Rich	1	4	
Rich	2	7	
SLC22A	1	6	
SLC22A	2	6	
CG6034	1	6	
CG6034	2	6	
CG15650	1	5	
CG8834	1	3	
CG4768	1	9	6
CG13653	1	6	
Obp56d	1	4	
plh	1	5	
CG15286	1	2	

Quoted from above for reference:
Target gene	dsRNA no.	mitotic cells, replicate 1	mitotic cells, replicate 2
Hand	1	12	
CG32243	1	16	
CG32267	1	8	
CG32267	2	8	
cola + swif	1	8	
cola + swif	2	10	
CG9018	1	5	
CG17580	1	4	
